{"source": "paper PMC7954469", "about": "(European journal of medicinal chemistry, 2021)", "origin": "cited, not measured here", "test_system": "p97", "conditions": "cited from earlier work", "data": [{"compound": "Clc1ccccc1C(c1ccccc1)(c1ccccc1)n1ccnc1", "note": "[Clotrimazole]", "values": [{"measurement": "IC50", "result": 12, "unit": "µM"}]}]}
